The list shows only some results of the screen, not a fair sample: it is rich in T/C values a quarter to a half above the control, in often repeated tests (any T/C) and in doses without a T/C. Further doses and runs are listed elsewhere. T/C: endpoint of the treated group in % of that of the vehicle group. Some entries give survivors of the animals treated and no T/C: the source files T/C as zero there, which appears to mark a toxic dose or a test without result, not a measured value. Some survivor counts are full or nearly so, which does not show that the dose was tolerated: the source hardly ever lists a survival T/C far under the control, and the zero likely stands for such cases as well. Survivors were counted at the toxicity check, usually on the fifth day, unless a day is given; later deaths do not show. Schedules are NCI's codes, taken here to give the interval after Q, in days (D) or hours (H), and the number of doses after X. Some doses were run more than once; the results are listed from low to high. For survival time, the PubChem record calls one and a half times the control and up active, and a quarter to a half above the control has no call in these data; cut-offs in other NCI protocols can differ. Some T/C values are followed by the survivors on the day toxicity was checked, most often the fifth; without a count, all were alive then. Additions like (4×) count equal records among those shown.
Tested on: BDF1 mice, P388 leukemia ip, median survival T/C
Experiment: NCI In Vivo Anticancer Drug Screen. Data for tumor model P388 Leukemia (intraperitoneal) in B6D2F1 (BDF1) mice
Details: T/C endpoint: median survival time, higher T/C = longer survival
How it was run: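 In tumour-bearing mice, survival after compound treatment is set against the vehicle group and given as a quotient.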

[1] = dose: 50.0 mg/kg/injection, schedule: Q01DX001 (ip), vehicle: Klucel (hydroxypropylcellulose) (HPC)
[2] = dose: 100.0 mg/kg/injection, schedule: Q01DX001 (ip), vehicle: Klucel (hydroxypropylcellulose) (HPC)

With `CC(=O)NNC(=O)c1ccccn1` the T/C (dose: 25.0 mg/kg/injection, schedule: Q01DX005 (ip), vehicle: Klucel (hydroxypropylcellulose) (HPC), evaluated on day 30) was 88, 90, 91, 92, 94 (2×), 96 (2×), 97 (2×), 98, 100 (2×), 101 (2×), 103 (2×), 105 (2×), 106 (3×), 107 (2×), 109, 115, 116, 117 (2×), 133 % of control, the T/C (dose: 25.0 mg/kg/injection, schedule: Q01DX005 (ip), vehicle: Klucel (hydroxypropylcellulose) (HPC), evaluated on day 35) was 105 and 110 % of control and the survivor count (dose: 25.0 mg/kg/injection, schedule: Q01DX005 (ip), vehicle: Klucel (hydroxypropylcellulose) (HPC)) was 6 of 6. For the same molecule, the T/C (dose: 25.0 mg/kg/injection, schedule: Q01DX009 (ip), vehicle: Klucel (hydroxypropylcellulose) (HPC), evaluated on day 30) was 90 (2×), 92, 93, 94, 95 (2×), 96 (3×), 97 (2×), 100 (4×), 102 (2×), 104 (2×), 105, 106 (2×), 107, 109, 110, 113, 114, 115, 120, 121, 123, 128, 139 % of control, the T/C (dose: 25.0 mg/kg/injection, schedule: Q01DX009 (ip), vehicle: Klucel (hydroxypropylcellulose) (HPC), evaluated on day 35) was 92 % of control and the survivor count (dose: 25.0 mg/kg/injection, schedule: Q01DX009 (ip), vehicle: Klucel (hydroxypropylcellulose) (HPC)) was 3 of 3. For the same molecule, the T/C [1] was 95, 98, 99 (4×), 100 (2×), 101 (2×), 102 (2×), 103, 104 (2×), 106 (3×), 107 (4×), 108, 109, 110, 115, 117, 119 % of control, the survivor count [1] was 6 of 6 and the T/C (dose: 50.0 mg/kg/injection, schedule: Q01DX005 (ip), vehicle: Klucel (hydroxypropylcellulose) (HPC), evaluated on day 30) was 87, 93, 94, 95, 96 (2×), 97, 98 (2×), 99, 100 (4×), 101 (3×), 102 (2×), 104 (2×), 105 (2×), 106 (2×), 108, 112, 114, 117, 121, 136 % of control. The T/C (dose: 50.0 mg/kg/injection, schedule: Q01DX005 (ip), vehicle: Klucel (hydroxypropylcellulose) (HPC), evaluated on day 35) was 96 and 103 % of control, the T/C (dose: 50.0 mg/kg/injection, schedule: Q01DX009 (ip), vehicle: Klucel (hydroxypropylcellulose) (HPC), evaluated on day 30) was 90, 92 (2×), 94 (3×), 95, 96 (2×), 97 (4×), 98 (2×), 100 (5×), 105, 106 (4×), 107 (2×), 111, 114, 115, 118, 119 % of control (2×) and the T/C (dose: 50.0 mg/kg/injection, schedule: Q01DX009 (ip), vehicle: Klucel (hydroxypropylcellulose) (HPC), evaluated on day 35) was 93 % of control. For the same molecule, the survivor count (dose: 50.0 mg/kg/injection, schedule: Q01DX009 (ip), vehicle: Klucel (hydroxypropylcellulose) (HPC)) was 2 of 3 and 6 of 6, the T/C (dose: 50.0 mg/kg/injection, schedule: Q04DX002 (ip), vehicle: Klucel (hydroxypropylcellulose) (HPC), evaluated on day 30) was 87, 90, 92, 94 (3×), 96, 97 (2×), 98 (4×), 100, 101 (3×), 103, 103 [2 of 3 alive], 104 (2×), 112, 115 (2×), 116, 119, 120 (2×), 126 % of control and the T/C (dose: 50.0 mg/kg/injection, schedule: Q04DX002 (ip), vehicle: Klucel (hydroxypropylcellulose) (HPC), evaluated on day 35) was 94 % of control. The survivor count (dose: 50.0 mg/kg/injection, schedule: Q04DX002 (ip), vehicle: Klucel (hydroxypropylcellulose) (HPC)) was 3 of 3, the T/C (dose: 50.0 mg/kg/injection, schedule: Q04DX003 (ip), vehicle: Klucel (hydroxypropylcellulose) (HPC), evaluated on day 30) was 87, 95 (2×), 96 (2×), 97, 98, 99, 100 (5×), 101 (3×), 102, 103 (5×), 104 (2×), 106, 112, 120, 123, 125 % of control and the T/C (dose: 50.0 mg/kg/injection, schedule: Q04DX003 (ip), vehicle: Klucel (hydroxypropylcellulose) (HPC), evaluated on day 35) was 109 % of control. For the same molecule, the survivor count (dose: 50.0 mg/kg/injection, schedule: Q04DX003 (ip), vehicle: Klucel (hydroxypropylcellulose) (HPC)) was 3 of 3 and 6 of 6, the T/C [2] was 92, 94 (2×), 95 (3×), 97, 98, 99 (3×), 100 (3×), 101 (2×), 102 (3×), 104, 106, 108 (2×), 110, 111, 112, 115, 117, 118 % of control and the survivor count [2] was 6 of 6. The T/C (dose: 100.0 mg/kg/injection, schedule: Q01DX005 (ip), vehicle: Klucel (hydroxypropylcellulose) (HPC), evaluated on day 30) was 86, 91, 92, 93 (2×), 94 (2×), 96 (2×), 97, 100 (2×), 101 (2×), 102, 104, 105, 107, 108, 110, 112 (3×), 113, 114, 116, 123, 124, 131, 152 % of control, the T/C (dose: 100.0 mg/kg/injection, schedule: Q01DX005 (ip), vehicle: Klucel (hydroxypropylcellulose) (HPC), evaluated on day 35) was 88 and 110 % of control and the survivor count (dose: 100.0 mg/kg/injection, schedule: Q01DX005 (ip), vehicle: Klucel (hydroxypropylcellulose) (HPC)) was 3 of 3. For the same molecule, the T/C (dose: 100.0 mg/kg/injection, schedule: Q01DX009 (ip), vehicle: Klucel (hydroxypropylcellulose) (HPC), evaluated on day 30) was 86, 87 (2×), 88, 89, 90, 92, 92 [2 of 3 alive], 93, 94, 95, 96, 97 (2×), 98 (2×), 99, 100 (4×), 102 (2×), 103 (2×), 107, 111, 116 (2×), 118, 121, 122, 123, 128 % of control, the T/C (dose: 100.0 mg/kg/injection, schedule: Q01DX009 (ip), vehicle: Klucel (hydroxypropylcellulose) (HPC), evaluated on day 35) was 99 % of control and the survivor count (dose: 100.0 mg/kg/injection, schedule: Q01DX009 (ip), vehicle: Klucel (hydroxypropylcellulose) (HPC)) was 3 of 3. The T/C (dose: 100.0 mg/kg/injection, schedule: Q01DX009 (ip), vehicle: water) was 136 % of control [5 of 6 alive], the T/C (dose: 100.0 mg/kg/injection, schedule: Q04DX002 (ip), vehicle: Klucel (hydroxypropylcellulose) (HPC), evaluated on day 30) was 91 (2×), 94, 95, 96 (2×), 98, 99 (3×), 100 (2×), 101 (3×), 103, 104, 106, 107 (3×), 109, 110, 112 (2×), 114 (2×), 115, 116 % of control and the T/C (dose: 100.0 mg/kg/injection, schedule: Q04DX002 (ip), vehicle: Klucel (hydroxypropylcellulose) (HPC), evaluated on day 35) was 104 % of control. The survivor count (dose: 100.0 mg/kg/injection, schedule: Q04DX002 (ip), vehicle: Klucel (hydroxypropylcellulose) (HPC)) was 3 of 3, the T/C (dose: 100.0 mg/kg/injection, schedule: Q04DX003 (ip), vehicle: Klucel (hydroxypropylcellulose) (HPC), evaluated on day 30) was 88, 90, 93 (3×), 94 (2×), 95, 96, 97 (3×), 98, 99 (2×), 100 (6×), 102, 103, 105, 108, 111, 112, 114, 131 % of control and the T/C (dose: 100.0 mg/kg/injection, schedule: Q04DX003 (ip), vehicle: Klucel (hydroxypropylcellulose) (HPC), evaluated on day 35) was 131 % of control.

— PubChem BioAssay AID328 (DTP/NCI, 2004)
